This is an account of results in PubChem BioAssay (NCATS).

By UniProt entry, the sequences of proteins in these tests, tags left out. Where a name states a change or a piece, a line headed by the entry shows the natural chain unless it says otherwise.
UniProt P40261: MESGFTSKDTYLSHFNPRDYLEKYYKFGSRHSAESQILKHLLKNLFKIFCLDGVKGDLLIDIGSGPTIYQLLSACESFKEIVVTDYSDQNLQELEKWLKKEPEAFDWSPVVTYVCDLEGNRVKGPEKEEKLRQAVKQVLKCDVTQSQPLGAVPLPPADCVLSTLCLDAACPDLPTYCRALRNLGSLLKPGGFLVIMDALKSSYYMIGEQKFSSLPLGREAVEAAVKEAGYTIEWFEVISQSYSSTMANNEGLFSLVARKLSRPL
UniProt P21964: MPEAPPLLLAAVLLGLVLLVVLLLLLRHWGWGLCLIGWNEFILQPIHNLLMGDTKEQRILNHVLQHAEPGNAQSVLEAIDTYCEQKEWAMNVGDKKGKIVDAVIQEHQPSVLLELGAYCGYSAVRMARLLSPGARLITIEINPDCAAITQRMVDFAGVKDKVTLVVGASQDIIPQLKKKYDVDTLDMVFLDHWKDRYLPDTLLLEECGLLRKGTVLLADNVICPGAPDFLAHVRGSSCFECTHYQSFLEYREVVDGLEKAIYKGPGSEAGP
UniProt P50135: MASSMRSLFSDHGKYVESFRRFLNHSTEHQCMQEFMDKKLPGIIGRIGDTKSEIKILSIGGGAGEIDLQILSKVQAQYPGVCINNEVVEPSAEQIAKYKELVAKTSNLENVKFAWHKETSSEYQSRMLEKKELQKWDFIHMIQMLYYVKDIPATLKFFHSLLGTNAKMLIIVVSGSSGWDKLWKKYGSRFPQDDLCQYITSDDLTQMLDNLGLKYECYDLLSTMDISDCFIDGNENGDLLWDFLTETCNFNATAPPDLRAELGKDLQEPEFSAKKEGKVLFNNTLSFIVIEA
UniProt P11086: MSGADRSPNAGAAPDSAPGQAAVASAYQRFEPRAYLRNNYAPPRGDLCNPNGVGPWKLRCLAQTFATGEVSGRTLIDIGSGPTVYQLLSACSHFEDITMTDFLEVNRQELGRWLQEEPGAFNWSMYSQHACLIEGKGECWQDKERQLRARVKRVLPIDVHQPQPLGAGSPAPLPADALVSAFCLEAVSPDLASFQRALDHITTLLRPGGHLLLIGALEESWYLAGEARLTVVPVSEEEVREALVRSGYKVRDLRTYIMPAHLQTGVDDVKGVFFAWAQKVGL

Several values for one entry are separate records, joined by “and”; a condition that tells them apart may be missing. Equal entries are not always repeated. The list shows a part of the results. Further columns of the screen follow, without active or inactive calls. For some of these results: The list favours compounds with an active or inconclusive main result. The note in brackets gives the kind of curve behind each potency; many fits are weak.

A short description of assay [1]: Validation of Assay for Modulators of Lamin A Splicing (AID 1459). The note with it: Lamin A splicing dual RFP/GFP fluorescence reporter, ratio. The method, boiled down: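 Readout: ratio of GFP (500-530 nm) to RFP (575-640 nm) total object intensity by 488 nm laser-scanning cytometry after 48 hrs. Cells were HeLa S3 clones carrying lamin A-EGFP minigene plus DsRed2 viability reporter; vehicle 0.5% DMSO final.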

Assay [2] in a line: qHTS Assay for Lipid Storage Modulators (AID 1519). The note with it: Drosophila S3 cells, BODIPY lipid droplet/cell ratio, laser cytometry, cells loaded with oleic acid. The method in brief: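 Cells seeded at 5,000 per well were treated with compounds over a concentration series and loaded with oleic acid (400 uM, as added). Lipid droplet fluorescence (488 nm excitation, 500-530 nm channel) was read by laser-scanning cytometry and normalized to 20 uM Triacsin C.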
In general terms: Quantitative high-throughput screening tests each substance at several concentrations.

Assay [3] is described as follows: qHTS Assay for Modulators of Human Peripheral Myelin Protein 22 (PMP22) Expression/Activity (AID 1967). The note with it: Cell-based PMP22 reporter, dual-color luciferase ratio. The method in brief:
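Mouse MSC80 Schwann line, Pmp22 promoter–CBG68 reporter, EF-alpha–CBR internal control. 24h compound exposure, 37 °C/5% CO2, DMEM + 10% FBS. Readout: corrected green/red luminescence ratio, normalized to untreated cells; concentration-response curves fitted and classified.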

The nature of assay [4]: qHTS Validation Assay to Find Inhibitors of Chronic Active B-Cell Receptor Signaling (AID 485345). The note with it: ABC-DLBCL cells, chronic BCR signaling reporter. The method in brief: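 TMD8 ABC-DLBCL cells with dox-inducible green luciferase–IκBα fusion and red native luciferase; compounds 46 uM–3 nM, 4 h at 37C with doxycycline in 0.5% FBS IMDM. Green/red ratio normalized to basal and 10 uM MG-132.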

A short description of assay [5]: S16 Schwann cell PMP22 intronic element beta-lactamase assay (AID 624044). The settings on record: S16 rat Schwann cells, PMP22 element beta-lactamase FRET, 24 h. The method, boiled down: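 Beta-lactamase reporter under a PMP22 intronic regulatory element in stable S16 rat Schwann cells; 24 h compound exposure. 460 nm blue signal normalized between DMSO (0%) and potassium clavulanate, with 535 nm FRET tracking viability; curves classed by r2 and response.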

Assay [6] is described as follows: qHTS drug screen for cell cycle checkpoint inhibitors in PARPi-resistant BRCA-mutant ovarian cancer cell lines. (AID 1963452). The settings on record: PEO1/OlaR viability, CellTiter-Glo luminescence, 96 h. The method in brief:
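PEO1, PEO4 and PEO1/OlaR ovarian cancer cells, 600 per well, exposed 96 h at 37C to a dilution series. Viability read by CellTiter-Glo luminescence, normalized to DMSO and empty wells; activity summarized as Z-AUC.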

Assay [7] is described as follows: qHTS for identification of novel therapeutic agents for treatment of microphthalmiaassociated transcription factor (MiT) renal cell carcinoma (RCC) (AID 1963991). The settings on record: CellTiter-Glo, 48 h; for z-score: stronger effect = lower value. The method in brief: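 Curves over 11 concentrations were fitted to CellTiter-Glo luminescence, scaled between empty wells (0%) and DMSO (100%) viability. Cells were UOK109, UOK124 and UOK145 TFE3-fusion RCC lines at 500/well, exposed 48 hours at 37 C.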

The target of assay [8] is Nicotinamide N-methyltransferase (Homo sapiens) (UniProt P40261). The assay is described as follows: Confirmatory Screen for Target Class Profiling of Small Molecule Inhibitors of Methyltransferases (AID 1745852). The note with it: MTase-Glo luminescence, SAH detection, recombinant enzyme; measured here: NNMT inhibition potency.
Assay [9] is described as follows: Nrf2 qHTS screen for inhibitors: Validation (AID 493153). The settings on record: A549 ARE-Fluc reporter, 18-24 h; AC50: CellTiter-Fluor fluorescence read, measured here: cytotoxicity CellTiter-Fluor AC50; viability change: measured here: cytotoxicity max response. The method, boiled down:
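Concentration-response test in A549 ARE_Fluc reporter cells (5% FBS OPTI-MEM), compound exposure 18-24 h at 37°C, 5% CO2. Cell viability measured first by CellTiter-Fluor fluorescence; ARE-driven luciferase luminescence then measured as Nrf2 activity.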

Assay [10] concerns the target Catechol O-methyltransferase (Homo sapiens) (UniProt P21964). The assay is described as follows: Confirmatory Screen for Target Class Profiling of Small Molecule Inhibitors of Methyltransferases (AID 1745852). The settings on record: MTase-Glo luminescence, SAH detection, recombinant enzyme; measured here: COMT inhibition potency.
Assay [11] is described as follows: qHTS Assay for Inhibitors of PDE-IV (AID 607). The settings on record: HEK293 ACTOne CNG channel cells, membrane potential fluorescence; measured here: parental cell counter-screen. The method in brief: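 Cell-based read-out of cAMP via a modified cyclic nucleotide-gated channel and membrane potential dye (535/590 nm) in HEK293 cells expressing PDE4 endogenously. Compounds tested up to 22.9 uM final; 100 uM RO 20-1724 reference.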

The target of assay [12] is Histamine N-methyltransferase (Homo sapiens) (UniProt P50135). The assay is described as follows: Confirmatory Screen for Target Class Profiling of Small Molecule Inhibitors of Methyltransferases (AID 1745852). The settings on record: MTase-Glo luminescence, SAH detection, recombinant enzyme; measured here: HNMT inhibition potency.
The target of assay [13] is Phenylethanolamine N-methyltransferase (Homo sapiens) (UniProt P11086). The description is as above. The settings on record: MTase-Glo luminescence, SAH detection, recombinant enzyme; measured here: PNMT inhibition potency.
Setting [14] is: measured here: cell count channel max response.
The mark [15] stands for this setting: measured here: cell number channel AC50.
[16] abbreviates: measured here: lipid (BODIPY) channel AC50.
Where [17] appears, read: measured here: lipid channel max response.
Setting [18] is: measured here: red reporter channel AC50, EF-alpha promoter control reporter in MSC80 mouse Schwann cells.
[19] abbreviates: measured here: CBG/CBR ratio read-out.
Where [20] appears, read: measured here: CBR control luciferase (viability counter).
The mark [21] stands for this setting: measured here: 460 nm blue channel.
[22] abbreviates: measured here: PEO1 parental viability.
The mark [23] stands for this setting: TFE3-RCC viability, measured here: UOK145 cell viability.
Where [24] appears, read: measured here: green reporter channel AC50, mouse Pmp22 promoter in mouse Schwann cells.

As usually defined, the AC50 is the concentration at which the activity in the assay is half-maximal. With `COC(=O)Nc1nc2ccc(C(=O)c3cccs3)cc2[nH]1`, the AC50 in assay [1] (measured here: GFP channel) was 0.316 µM [falling, full curve]; in assay [1] (measured here: RFP channel) it was 0.316 µM [falling, full curve]; in assay [2] (setting [15]), 0.447 µM [rising, full curve, poor fit]; in [2] (setting [16]), 282 nM [rising, full curve, poor fit] and 200 nM [rising, full curve, poor fit]; in assay [3] (setting [18]), 26.9 µM [falling, full curve, poor fit]; in [4] (setting [19]), 8.2 µM [falling, partial curve]. Moreover, the AC50 in assay [4] (setting [20]) is 0.58 µM [rising, full curve]; in assay [5] (setting [21]), 0.891 µM [falling, full curve]; in [5] (measured here: 530 nm viability channel) it was 3.16 µM [rising, partial curve]; in [6] (setting [22]), 0.0692 µM [falling, full curve]; in [6] (measured here: PEO4 viability), 0.0616 µM [falling, full curve]; in [7] (TFE3-RCC viability, measured here: UOK124 cell viability) it was 0.0235 µM [falling, full curve]. Besides, in assay [7] (setting [23]), the AC50 was 0.0059 µM [falling, full curve]. Further, the max response in [2] (setting [14]) is 53.6% and 16.5%; in [2] (setting [17]), 69.1% and 33.7%.

As usually defined, the IC50 is the point on the concentration scale where inhibition reaches its midpoint. For `CC(C)c1ccc2c(c1)c(SC(C)(C)C)c(CC(C)(C)C(=O)O)n2Cc1ccc(Cl)cc1`, the AC50 was 11.2 µM [falling, partial curve] in [1] (measured here: GFP channel); 11.2 µM [falling, partial curve] in assay [1] (measured here: RFP channel); 7.94 µM [falling, full curve, poor fit] in assay [2] (setting [15]); 3.16 µM [rising, single point] and 7.94 µM [falling, full curve, poor fit] in [2] (setting [16]); 60.1 µM [falling, partial curve] in assay [3] (setting [24]); 33.8 µM [falling, partial curve] in assay [3] (setting [18]). Moreover, the half-maximal activity concentration (AC50) in [4] (setting [19]) was 23.1 µM [falling, partial curve]; in [4] (setting [20]), 20.6 µM [falling, single point]; in [6] (setting [22]) it was 27.5 µM [falling, single point]; in assay [6] (measured here: PEO4 viability) it was 15.5 µM [falling, single point]; in [7] (setting [23]), 23.5 µM [falling, partial curve]. For the same compound, the max response in assay [2] (setting [14]) is -42.8% and -55.1%; in assay [2] (setting [17]) it was -58.5% and -66.6%. In addition, the IC50 in assay [8] is 21.7 µM [falling, partial curve]. Besides, the z-score was 0.305 in [7] (TFE3-RCC UOK109 viability, measured here: UOK109 Z-AUC); 0.22 in [7] (TFE3-RCC viability, measured here: UOK124 Z-AUC); -0.0575 in assay [7] (TFE3-RCC viability, measured here: UOK145 Z-AUC).

For the compound `Oc1cc(O)cc(/C=C/c2ccc(O)c(O)c2)c1`, the AC50 was 35.5 µM [falling, single point] in assay [1] (measured here: GFP channel); 14.1 µM [falling, partial curve] in assay [1] (measured here: RFP channel); 28.2 µM [rising, partial curve, poor fit] in assay [2] (setting [15]); 28.2 µM [rising, partial curve, poor fit] in [2] (setting [16]); 42.6 µM [falling, partial curve] in assay [3] (setting [24]); 30.1 µM [falling, full curve] in assay [3] (setting [18]). Moreover, the AC50 in assay [4] (setting [19]) was 10.3 µM [falling, partial curve]; in assay [9] it was 16.4 µM [falling, partial curve, poor fit]; in [6] (measured here: PEO4 viability) it was 5.49 µM [falling, partial curve]. Also, the max response worked out at 51.7% in assay [2] (setting [14]) and 52.3% in assay [2] (setting [17]). Besides, the viability change in assay [9] was -25.3%. Also, in assay [10], the IC50 was 1.09 µM [rising, full curve].

Turning to `O=C1C(SCCO)=C(SCCO)C(=O)c2ccccc21`, the AC50 in [11] was 0.316 µM [falling, full curve]; in [1] (measured here: GFP channel), 3.98 µM [falling, full curve]; in [1] (measured here: RFP channel), 3.55 µM [falling, full curve]; in [2] (setting [15]), 39.8 µM [falling, partial curve, poor fit] and 8.91 µM [falling, full curve, poor fit]; in assay [2] (setting [16]), 12.6 µM [falling, full curve, poor fit] and 10 µM [falling, full curve, poor fit]; in [3] (setting [24]), 8.49 µM [falling, full curve]. Moreover, the AC50 is 8.49 µM [falling, full curve] in assay [3] (setting [18]); 5.17 µM [falling, single point] in assay [4] (setting [19]); 14.6 µM [falling, partial curve] in [4] (setting [20]); 29.1 µM [falling, partial curve, poor fit] in assay [9]. For the same compound, the max response was -62.7% and -53.3% in assay [2] (setting [14]); -86.5% and -101% in assay [2] (setting [17]). In assay [9], the viability change is -29.1%. In addition, the IC50 in assay [10] was 1.53 µM [falling, full curve]; in assay [12] it was 30.6 µM [falling, partial curve]; in assay [8], 30.6 µM [falling, partial curve]; in assay [13] it was 1.53 µM [falling, full curve].

Consider `CNC(=O)[C@H]1O[C@@H](n2cnc3c(N)ncnc32)[C@H](O)[C@H]1O`, for which the AC50 is 20 µM [falling, partial curve] in assay [1] (measured here: GFP channel) and 20 µM [falling, partial curve] in assay [1] (measured here: RFP channel).

`CC(=O)[C@]1(O)Cc2c(O)c3c(c(O)c2[C@@H](O[C@H]2C[C@H](N)[C@H](O)[C@H](C)O2)C1)C(=O)c1ccccc1C3=O`: the AC50 in assay [1] (measured here: GFP channel) was 0.631 µM [falling, full curve]; in [1] (measured here: RFP channel), 0.251 µM [falling, full curve]; in assay [2] (setting [15]), 17.8 µM [falling, full curve, poor fit]; in assay [2] (setting [16]) it was 7.94 µM [falling, full curve, poor fit]; in [3] (setting [24]) it was 0.757 µM [falling, full curve]; in assay [3] (setting [18]), 0.426 µM [falling, full curve]. The AC50 was 3.26 µM [falling, full curve] in [4] (setting [20]); 0.0631 µM [falling, full curve] in assay [5] (setting [21]); 2.19 µM [falling, full curve] in assay [6] (setting [22]); 1.95 µM [falling, partial curve, poor fit] in [6] (measured here: PEO4 viability). For the same compound, the max response in assay [2] (setting [14]) was -98.4%; in [2] (setting [17]), -105%.
